Measurements taken from the supplement of paper PMC8256030.
The list shows a part of the results. Repeats in this data set agree poorly, so a single value says little.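 HEK293T cells were given each compound shortly before transfection with a reporter in which red mCherry is followed by the SARS-CoV-2 frameshift element and then GFP in the −1 frame, so GFP appears only after frameshifting.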

Columns and labels:
[1] = tested on: SARS-CoV-2 -1 PRF reporter mCherry-FSE-GFP(-1); experiment: mCherry (red) intensity as percent of control; higher = higher upstream reporter expression; conditions: 10 µM; 24 h; HEK293T
[2] = tested on: SARS-CoV-2 -1 PRF reporter mCherry-FSE-GFP(-1); experiment: percent effect, decrease of GFP/mCherry ratio (-1 PRF reporter) relative to controls; higher = stronger frameshift inhibition; conditions: 10 µM; 24 h; HEK293T

NC1=N[C@H](O)[C@H]2[C@H]3O[C@]4(O)O[C@@H]([C@@H](O)[C@@]2(N1)[C@@H]4O)[C@]3(O)CO [tetrodotoxin]
mCherry [1]: 71.5%
percent effect [2]: 2.76%
